Experimental data: PubChem BioAssay AID1224830 (NIAID, 2016)
Shown is an unselected part of about 18,000 reagents. About 2,900 of them (16%) were called active. 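Calls are made per well; low scores hint the gene aids the LPS response, high scores that it dampens it.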 Repeated entries: four replicate wells of each siRNA pool.

- Assay: 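Genes whose knock-down alters the TNF-alpha reporter response to LPS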 (primary screen)
- Cell system: human THP-1 monocytic leukaemia cells, TNF dual-luciferase reporter clone, PMA-differentiated to macrophage-like cells
- Reagent: siRNA pool against human genes, 50 nM
- Time to read-out: LPS for 4 h, given about 3 days after siRNA transfection
- Conditions: bacterial LPS (TLR4 ligand), 10 ng/ml
- Read-out: 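TNF firefly reporter luminescence divided by renilla, normalised to the plate median, then turned into a robust z-score for each replicate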
- Direction: TNF reporter robust z-score: higher = stronger TNF reporter response to LPS
- Call rule: 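a well is active when its z-score exceeds 2.8 or falls below -1.5; control wells carry no call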

TNF reporter robust z-score | activity call | gene | PubChem SID
-0.28 | inactive | TOE1 | SID315461210
0.21 | inactive | TOE1 | SID315461210
1.82 | inactive | TOE1 | SID315461210
2.01 | inactive | TOE1 | SID315461210
1.01 | inactive | AR | SID315447377
-0.43 | inactive | AR | SID315447377
-0.04 | inactive | AR | SID315447377
1.81 | inactive | AR | SID315447377
2.01 | inactive | ADAM33 | SID315459760
2.83 | active | ADAM33 | SID315459760
1.48 | inactive | ADAM33 | SID315459760
1.31 | inactive | ADAM33 | SID315459760
-0.49 | inactive | PIGA | SID315450579
0.88 | inactive | PIGA | SID315450579
0 | inactive | PIGA | SID315450579
2.66 | inactive | PIGA | SID315450579
-0.33 | inactive | SLC16A14 | SID315462494
-0.42 | inactive | SLC16A14 | SID315462494
-0.1 | inactive | SLC16A14 | SID315462494
-1.2 | inactive | SLC16A14 | SID315462494
-0.94 | inactive | SYT5 | SID315451727
-1.13 | inactive | SYT5 | SID315451727
-1.18 | inactive | SYT5 | SID315451727
-0.77 | inactive | SYT5 | SID315451727
-0.78 | inactive | TMEM219 | SID315461611
-0.16 | inactive | TMEM219 | SID315461611
-0.9 | inactive | TMEM219 | SID315461611
-0.34 | inactive | TMEM219 | SID315461611

11 entries from above, sorted by “TNF reporter robust z-score”, ascending:
TNF reporter robust z-score | activity call | gene | PubChem SID
-0.43 | inactive | AR | SID315447377
-0.04 | inactive | AR | SID315447377
0.21 | inactive | TOE1 | SID315461210
1.01 | inactive | AR | SID315447377
1.31 | inactive | ADAM33 | SID315459760
1.48 | inactive | ADAM33 | SID315459760
1.81 | inactive | AR | SID315447377
1.82 | inactive | TOE1 | SID315461210
2.01 | inactive | TOE1 | SID315461210
2.01 | inactive | ADAM33 | SID315459760
2.83 | active | ADAM33 | SID315459760

The list goes on:
TNF reporter robust z-score | activity call | gene | PubChem SID
-1.51 | active | TMEM87A | SID315455583
-0.83 | inactive | TMEM87A | SID315455583
-1.32 | inactive | TMEM87A | SID315455583
-1.29 | inactive | TMEM87A | SID315455583
-0.81 | inactive | NLRP14 | SID315463976
0.48 | inactive | NLRP14 | SID315463976
-0.57 | inactive | NLRP14 | SID315463976
-0.44 | inactive | NLRP14 | SID315463976
-1.39 | inactive | BBLN | SID315459211
-0.72 | inactive | BBLN | SID315459211
-1.3 | inactive | BBLN | SID315459211
-0.17 | inactive | BBLN | SID315459211
-1 | inactive | EPN1 | SID315456219
-0.55 | inactive | EPN1 | SID315456219
-0.89 | inactive | EPN1 | SID315456219
-0.49 | inactive | EPN1 | SID315456219
-1.97 | active | E4F1 | SID315448420
-1.57 | active | E4F1 | SID315448420
-1.77 | active | E4F1 | SID315448420
-1.26 | inactive | E4F1 | SID315448420
-0.76 | inactive | PPIAL4A | SID315462800
0.2 | inactive | PPIAL4A | SID315462800
-0.39 | inactive | PPIAL4A | SID315462800
-0.47 | inactive | PPIAL4A | SID315462800
-0.27 | inactive | CSGALNACT2 | SID315457645
0.19 | inactive | CSGALNACT2 | SID315457645
-1.01 | inactive | CSGALNACT2 | SID315457645
-0.06 | inactive | CSGALNACT2 | SID315457645
0.59 | inactive | OTUD6B | SID315456816
-0.08 | inactive | OTUD6B | SID315456816
-0.63 | inactive | OTUD6B | SID315456816
-0.75 | inactive | OTUD6B | SID315456816
0.76 | inactive | OR6C65 | SID315464830
1.04 | inactive | OR6C65 | SID315464830
-0.64 | inactive | OR6C65 | SID315464830
0.78 | inactive | OR6C65 | SID315464830
-1.14 | inactive | RHOH | SID315447403
-0.61 | inactive | RHOH | SID315447403
-0.93 | inactive | RHOH | SID315447403
0.12 | inactive | RHOH | SID315447403
-0.98 | inactive | SPHK1 | SID315452894
-0.55 | inactive | SPHK1 | SID315452894
-0.65 | inactive | SPHK1 | SID315452894
-1.21 | inactive | SPHK1 | SID315452894
0.56 | inactive | NEUROG1 | SID315450217
-0.06 | inactive | NEUROG1 | SID315450217
0.7 | inactive | NEUROG1 | SID315450217
-0.52 | inactive | NEUROG1 | SID315450217
